Experimental data: doi:10.1101/2023.01.15.524101
Like-named read-outs stand apart in the source and are kept apart here. Results are given in words; binding and its absence hold for the method and conditions named. Binding seen in cells or lysates may run through a third protein. For some of these results: A result given as binding can be weak or reduced; the word gives no strength. Values belong to the molecule of their own block, whether it stands above or below them.

Protein sequences, listed by entry. Tags and fused reporters are not part of them. Lines headed by an entry give the natural chain unless they say otherwise; changes in a name come on top.
UniProt O08838: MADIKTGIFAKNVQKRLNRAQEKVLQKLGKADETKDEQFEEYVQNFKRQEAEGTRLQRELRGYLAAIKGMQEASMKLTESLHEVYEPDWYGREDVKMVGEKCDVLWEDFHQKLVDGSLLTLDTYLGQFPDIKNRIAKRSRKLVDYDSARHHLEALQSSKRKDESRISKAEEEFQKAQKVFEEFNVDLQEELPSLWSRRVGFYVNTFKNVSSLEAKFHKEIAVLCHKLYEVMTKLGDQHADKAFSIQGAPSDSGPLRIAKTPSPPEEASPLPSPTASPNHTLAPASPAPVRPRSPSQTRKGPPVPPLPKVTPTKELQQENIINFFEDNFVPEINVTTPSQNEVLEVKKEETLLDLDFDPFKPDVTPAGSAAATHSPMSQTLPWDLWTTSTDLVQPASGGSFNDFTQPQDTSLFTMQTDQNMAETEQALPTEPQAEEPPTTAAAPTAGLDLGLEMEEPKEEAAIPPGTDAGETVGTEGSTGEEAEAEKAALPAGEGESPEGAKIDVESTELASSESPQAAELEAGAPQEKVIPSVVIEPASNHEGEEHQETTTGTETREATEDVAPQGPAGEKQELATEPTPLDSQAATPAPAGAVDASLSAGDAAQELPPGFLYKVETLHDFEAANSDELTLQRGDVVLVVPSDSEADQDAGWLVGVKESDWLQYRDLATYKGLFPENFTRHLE
UniProt P11442: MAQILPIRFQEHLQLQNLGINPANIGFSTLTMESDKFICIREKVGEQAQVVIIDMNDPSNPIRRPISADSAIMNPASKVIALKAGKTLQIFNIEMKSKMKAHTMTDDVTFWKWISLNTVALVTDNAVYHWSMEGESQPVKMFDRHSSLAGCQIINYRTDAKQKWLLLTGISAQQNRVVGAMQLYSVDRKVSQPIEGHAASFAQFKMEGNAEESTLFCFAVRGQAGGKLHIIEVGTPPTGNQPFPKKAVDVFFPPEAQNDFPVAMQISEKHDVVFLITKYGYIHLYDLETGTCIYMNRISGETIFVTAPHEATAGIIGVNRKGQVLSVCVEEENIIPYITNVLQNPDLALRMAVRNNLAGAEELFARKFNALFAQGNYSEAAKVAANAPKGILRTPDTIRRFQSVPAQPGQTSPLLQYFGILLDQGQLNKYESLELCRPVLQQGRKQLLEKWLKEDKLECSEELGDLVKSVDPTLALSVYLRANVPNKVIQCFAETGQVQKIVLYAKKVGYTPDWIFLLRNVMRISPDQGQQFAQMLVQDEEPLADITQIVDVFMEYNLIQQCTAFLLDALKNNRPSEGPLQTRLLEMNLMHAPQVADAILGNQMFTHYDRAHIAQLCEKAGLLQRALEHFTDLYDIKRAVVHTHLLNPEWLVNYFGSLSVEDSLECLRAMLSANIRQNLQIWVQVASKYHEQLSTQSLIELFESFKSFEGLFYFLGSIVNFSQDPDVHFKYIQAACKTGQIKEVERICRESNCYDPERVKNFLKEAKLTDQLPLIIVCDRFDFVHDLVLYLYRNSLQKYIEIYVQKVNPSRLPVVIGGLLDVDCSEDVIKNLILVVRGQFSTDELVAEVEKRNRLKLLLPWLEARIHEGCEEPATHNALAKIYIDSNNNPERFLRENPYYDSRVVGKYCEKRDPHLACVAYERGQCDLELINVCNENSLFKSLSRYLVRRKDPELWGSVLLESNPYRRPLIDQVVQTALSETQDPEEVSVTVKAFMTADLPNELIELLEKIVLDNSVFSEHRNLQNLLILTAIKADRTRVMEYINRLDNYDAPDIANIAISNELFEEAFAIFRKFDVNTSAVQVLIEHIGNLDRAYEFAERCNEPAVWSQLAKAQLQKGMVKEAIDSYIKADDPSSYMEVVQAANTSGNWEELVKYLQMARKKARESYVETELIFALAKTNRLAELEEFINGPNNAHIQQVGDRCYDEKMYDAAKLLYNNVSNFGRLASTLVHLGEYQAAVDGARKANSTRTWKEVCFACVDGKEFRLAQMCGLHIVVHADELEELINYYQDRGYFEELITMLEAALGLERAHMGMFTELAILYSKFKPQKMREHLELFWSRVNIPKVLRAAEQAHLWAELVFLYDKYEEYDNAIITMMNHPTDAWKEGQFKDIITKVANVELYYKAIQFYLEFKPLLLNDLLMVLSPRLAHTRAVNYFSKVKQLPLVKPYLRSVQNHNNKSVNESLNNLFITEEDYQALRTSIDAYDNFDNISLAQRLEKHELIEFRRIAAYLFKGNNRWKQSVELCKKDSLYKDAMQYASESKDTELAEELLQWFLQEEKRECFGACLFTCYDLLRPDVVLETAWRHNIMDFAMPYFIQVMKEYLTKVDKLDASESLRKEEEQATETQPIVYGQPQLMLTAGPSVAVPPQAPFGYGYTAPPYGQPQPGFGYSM
UniProt O35179: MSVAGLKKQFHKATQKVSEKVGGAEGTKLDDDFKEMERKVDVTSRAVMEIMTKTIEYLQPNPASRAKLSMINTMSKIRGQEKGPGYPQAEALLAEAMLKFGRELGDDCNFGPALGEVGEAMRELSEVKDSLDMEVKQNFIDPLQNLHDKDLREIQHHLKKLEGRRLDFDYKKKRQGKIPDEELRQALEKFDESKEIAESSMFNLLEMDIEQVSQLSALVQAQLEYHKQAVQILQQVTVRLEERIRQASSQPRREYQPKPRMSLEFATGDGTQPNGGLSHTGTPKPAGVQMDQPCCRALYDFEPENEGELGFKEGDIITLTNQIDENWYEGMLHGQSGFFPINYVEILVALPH

Key:
Test in all cases: pull-down
[1] = target: GST-Amph1-ΔNBAR WT (amphiphysin-1 without the N-BAR domain, with the SH3 domain) (rat) (UniProt O08838)
[2] = target: GST-Amph1-ΔNBAR WT (amphiphysin-1 without the N-BAR domain, with the SH3 domain) (rat) (UniProt O08838); remark: listed apart in the source
[3] = target: GST-Amph1-ΔNBAR-ΔSH3 SSR (323FFE325 to SSR) (rat)

- binding [1]: binds
Molecule: clathrin heavy chain (CHC) (from UniProt P11442 1-1675)

- binding [1]: binds
Molecule: endophilin A1 (from UniProt O35179 1-352)

- binding [2]: binds
- binding [3]: no binding
B1: dynamin-1 (Dyn1) (protein, UniProt P21575 1-864)
chain: MGNRGMEDLIPLVNRLQDAFSAIGQNADLDLPQIAVVGGQSAGKSSVLENFVGRDFLPRGSGIVTRRPLVLQLVNSTTEYAEFLHCKGKKFTDFEEVRLEIEAETDRVTGTNKGISPVPINLRVYSPHVLNLTLVDLPGMTKVPVGDQPPDIEFQIRDMLMQFVTKENCLILAVSPANSDLANSDALKIAKEVDPQGQRTIGVITKLDLMDEGTDARDVLENKLLPLRRGYIGVVNRSQKDIDGKKDITAALAAERKFFLSHPSYRHLADRMGTPYLQKVLNQQLTNHIRDTLPGLRNKLQSQLLSIEKEVDEYKNFRPDDPARKTKALLQMVQQFAVDFEKRIEGSGDQIDTYELSGGARINRIFHERFPFELVKMEFDEKELRREISYAIKNIHGIRTGLFTPDLAFEATVKKQVQKLKEPSIKCVDMVVSELTSTIRKCSEKLQQYPRLREEMERIVTTHIREREGRTKEQVMLLIDIELAYMNTNHEDFIGFANAQQRSNQMNKKKTSGNQDEILVIRKGWLTINNIGIMKGGSKEYWFVLTAENLSWYKDDEEKEKKYMLSVDNLKLRDVEKGFMSSKHIFALFNTEQRNVYKDYRQLELACETQEEVDSWKASFLRAGVYPERVGDKEKASETEENGSDSFMHSMDPQLERQVETIRNLVDSYMAIVNKTVRDLMPKTIMHLMINNTKEFIFSELLANLYSCGDQNTLMEESAEQAQRRDEMLRMYHALKEALSIIGDINTTTVSTPMPPPVDDSWLQVQSVPAGRRSPTSSPTPQRRAPAVPPARPGSRGPAPGPPPAGSALGGAPPVPSRPGASPDPFGPPPQVPSRPNRAPPGVPSRSGQASPSRPESPRPPFDL
